The supplement of paper PMC10849652
This is one part of the list. Residues, ends and D or L forms follow the SMILES beside them. *: point of attachment. Cbz = O=C(OCc1ccccc1)*

The chains behind the UniProt entries cited, without tags or fusion partners. Where a name states a change or a piece, a line headed by the entry shows the natural chain unless it says otherwise.
UniProt Q9NW15: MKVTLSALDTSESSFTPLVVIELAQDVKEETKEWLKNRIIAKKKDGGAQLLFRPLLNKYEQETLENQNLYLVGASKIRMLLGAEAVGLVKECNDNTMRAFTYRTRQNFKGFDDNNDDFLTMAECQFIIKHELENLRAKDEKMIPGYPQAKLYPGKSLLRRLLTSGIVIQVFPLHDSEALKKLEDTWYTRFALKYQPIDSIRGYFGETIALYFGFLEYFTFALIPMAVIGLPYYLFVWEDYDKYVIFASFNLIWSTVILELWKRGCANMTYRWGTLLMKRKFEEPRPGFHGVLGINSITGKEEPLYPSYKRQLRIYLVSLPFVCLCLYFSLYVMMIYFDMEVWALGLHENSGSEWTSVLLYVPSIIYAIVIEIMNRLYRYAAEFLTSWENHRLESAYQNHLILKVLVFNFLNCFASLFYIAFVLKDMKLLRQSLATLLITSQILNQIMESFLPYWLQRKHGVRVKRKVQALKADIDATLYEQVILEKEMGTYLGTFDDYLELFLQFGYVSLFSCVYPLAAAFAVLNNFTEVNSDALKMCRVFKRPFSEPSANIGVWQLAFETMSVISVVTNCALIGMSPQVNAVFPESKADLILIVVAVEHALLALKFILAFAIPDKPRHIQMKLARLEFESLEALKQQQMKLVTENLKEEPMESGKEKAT
UniProt P07355, whole entry, looked up: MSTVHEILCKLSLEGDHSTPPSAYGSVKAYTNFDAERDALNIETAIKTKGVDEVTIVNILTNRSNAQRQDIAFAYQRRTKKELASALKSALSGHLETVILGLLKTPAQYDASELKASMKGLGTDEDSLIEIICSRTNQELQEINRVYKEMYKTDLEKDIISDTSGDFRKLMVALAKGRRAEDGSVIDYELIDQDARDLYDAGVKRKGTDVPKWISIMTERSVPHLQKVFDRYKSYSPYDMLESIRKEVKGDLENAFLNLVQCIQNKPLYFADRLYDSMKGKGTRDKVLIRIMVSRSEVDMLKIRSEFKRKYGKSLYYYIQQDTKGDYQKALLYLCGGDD
UniProt P02649, whole entry, looked up: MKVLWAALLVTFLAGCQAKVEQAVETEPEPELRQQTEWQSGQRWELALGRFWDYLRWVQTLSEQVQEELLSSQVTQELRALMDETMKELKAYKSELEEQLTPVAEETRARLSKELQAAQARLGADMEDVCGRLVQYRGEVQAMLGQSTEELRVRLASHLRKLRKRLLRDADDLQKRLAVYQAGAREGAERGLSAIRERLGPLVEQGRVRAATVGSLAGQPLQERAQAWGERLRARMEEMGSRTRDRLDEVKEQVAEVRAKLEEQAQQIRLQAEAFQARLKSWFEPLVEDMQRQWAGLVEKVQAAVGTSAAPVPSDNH
UniProt Q9P2R3: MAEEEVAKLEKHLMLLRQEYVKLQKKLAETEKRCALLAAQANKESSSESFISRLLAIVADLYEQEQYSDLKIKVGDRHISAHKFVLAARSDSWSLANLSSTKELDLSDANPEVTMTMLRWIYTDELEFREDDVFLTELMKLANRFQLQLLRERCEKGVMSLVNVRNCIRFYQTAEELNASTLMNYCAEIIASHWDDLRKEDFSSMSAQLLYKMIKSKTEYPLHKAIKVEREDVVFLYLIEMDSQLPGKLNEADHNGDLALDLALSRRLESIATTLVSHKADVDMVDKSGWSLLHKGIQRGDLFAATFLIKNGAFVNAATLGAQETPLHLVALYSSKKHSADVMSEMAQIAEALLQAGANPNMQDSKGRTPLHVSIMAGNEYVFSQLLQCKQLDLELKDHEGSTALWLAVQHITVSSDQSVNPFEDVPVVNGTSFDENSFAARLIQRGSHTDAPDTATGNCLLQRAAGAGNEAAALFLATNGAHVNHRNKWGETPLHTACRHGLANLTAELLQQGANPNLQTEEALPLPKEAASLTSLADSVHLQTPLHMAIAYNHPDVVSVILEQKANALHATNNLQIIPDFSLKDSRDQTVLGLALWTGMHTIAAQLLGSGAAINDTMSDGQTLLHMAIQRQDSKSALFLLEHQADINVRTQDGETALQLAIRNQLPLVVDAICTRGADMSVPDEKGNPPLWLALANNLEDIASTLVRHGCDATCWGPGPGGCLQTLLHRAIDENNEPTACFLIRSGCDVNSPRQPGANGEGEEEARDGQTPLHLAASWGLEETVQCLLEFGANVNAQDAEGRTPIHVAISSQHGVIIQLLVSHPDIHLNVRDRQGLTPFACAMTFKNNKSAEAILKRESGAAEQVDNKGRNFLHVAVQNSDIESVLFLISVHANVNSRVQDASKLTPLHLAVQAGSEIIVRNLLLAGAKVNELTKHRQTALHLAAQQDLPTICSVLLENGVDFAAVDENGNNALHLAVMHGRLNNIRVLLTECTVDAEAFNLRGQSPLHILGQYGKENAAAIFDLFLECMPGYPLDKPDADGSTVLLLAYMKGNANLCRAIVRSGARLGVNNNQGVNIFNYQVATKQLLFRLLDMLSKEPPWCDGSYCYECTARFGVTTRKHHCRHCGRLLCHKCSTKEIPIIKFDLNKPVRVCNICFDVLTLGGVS
UniProt Q9UPM8: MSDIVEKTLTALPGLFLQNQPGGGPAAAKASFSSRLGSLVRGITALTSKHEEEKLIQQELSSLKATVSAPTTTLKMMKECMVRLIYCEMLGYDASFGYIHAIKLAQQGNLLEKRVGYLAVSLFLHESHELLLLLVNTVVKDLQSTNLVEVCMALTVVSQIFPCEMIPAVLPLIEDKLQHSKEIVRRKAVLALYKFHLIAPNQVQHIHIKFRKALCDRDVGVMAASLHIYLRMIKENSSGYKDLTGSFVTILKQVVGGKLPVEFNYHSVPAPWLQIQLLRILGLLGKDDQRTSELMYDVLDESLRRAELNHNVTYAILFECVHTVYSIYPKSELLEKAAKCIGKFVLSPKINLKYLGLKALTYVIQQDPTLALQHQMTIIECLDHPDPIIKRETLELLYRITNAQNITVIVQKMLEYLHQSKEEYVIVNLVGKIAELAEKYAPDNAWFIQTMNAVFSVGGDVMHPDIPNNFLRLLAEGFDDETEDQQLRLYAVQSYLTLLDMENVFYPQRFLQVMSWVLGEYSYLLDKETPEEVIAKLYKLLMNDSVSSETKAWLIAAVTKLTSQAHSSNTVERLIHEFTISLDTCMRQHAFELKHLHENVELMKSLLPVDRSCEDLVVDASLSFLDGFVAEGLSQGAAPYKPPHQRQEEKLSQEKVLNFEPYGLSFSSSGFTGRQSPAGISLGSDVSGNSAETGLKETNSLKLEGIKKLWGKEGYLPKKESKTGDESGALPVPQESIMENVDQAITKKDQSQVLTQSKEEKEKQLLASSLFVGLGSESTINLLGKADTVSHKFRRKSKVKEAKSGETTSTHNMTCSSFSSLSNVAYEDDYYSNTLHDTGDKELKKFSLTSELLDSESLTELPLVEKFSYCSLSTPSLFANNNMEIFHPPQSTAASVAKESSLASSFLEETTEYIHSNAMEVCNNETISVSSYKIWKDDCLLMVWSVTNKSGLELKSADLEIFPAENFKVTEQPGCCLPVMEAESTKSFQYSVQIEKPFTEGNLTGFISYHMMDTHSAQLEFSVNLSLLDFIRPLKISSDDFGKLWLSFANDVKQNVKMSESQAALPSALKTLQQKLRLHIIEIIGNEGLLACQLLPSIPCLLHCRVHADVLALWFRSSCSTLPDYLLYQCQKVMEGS
UniProt P18085: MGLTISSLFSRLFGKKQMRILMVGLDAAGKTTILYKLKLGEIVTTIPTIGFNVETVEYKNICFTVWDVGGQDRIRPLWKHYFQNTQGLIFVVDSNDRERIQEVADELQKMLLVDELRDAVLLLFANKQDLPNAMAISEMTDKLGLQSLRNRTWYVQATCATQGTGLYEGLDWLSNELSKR
UniProt P08758: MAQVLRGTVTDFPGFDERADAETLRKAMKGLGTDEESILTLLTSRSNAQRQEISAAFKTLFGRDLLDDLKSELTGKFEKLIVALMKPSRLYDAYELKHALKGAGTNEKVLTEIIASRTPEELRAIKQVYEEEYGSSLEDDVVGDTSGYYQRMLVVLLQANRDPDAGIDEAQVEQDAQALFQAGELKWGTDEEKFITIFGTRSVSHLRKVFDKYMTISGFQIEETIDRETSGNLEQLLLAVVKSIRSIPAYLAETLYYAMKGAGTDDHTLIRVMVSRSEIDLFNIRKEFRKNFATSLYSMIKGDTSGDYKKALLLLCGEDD
UniProt O95782: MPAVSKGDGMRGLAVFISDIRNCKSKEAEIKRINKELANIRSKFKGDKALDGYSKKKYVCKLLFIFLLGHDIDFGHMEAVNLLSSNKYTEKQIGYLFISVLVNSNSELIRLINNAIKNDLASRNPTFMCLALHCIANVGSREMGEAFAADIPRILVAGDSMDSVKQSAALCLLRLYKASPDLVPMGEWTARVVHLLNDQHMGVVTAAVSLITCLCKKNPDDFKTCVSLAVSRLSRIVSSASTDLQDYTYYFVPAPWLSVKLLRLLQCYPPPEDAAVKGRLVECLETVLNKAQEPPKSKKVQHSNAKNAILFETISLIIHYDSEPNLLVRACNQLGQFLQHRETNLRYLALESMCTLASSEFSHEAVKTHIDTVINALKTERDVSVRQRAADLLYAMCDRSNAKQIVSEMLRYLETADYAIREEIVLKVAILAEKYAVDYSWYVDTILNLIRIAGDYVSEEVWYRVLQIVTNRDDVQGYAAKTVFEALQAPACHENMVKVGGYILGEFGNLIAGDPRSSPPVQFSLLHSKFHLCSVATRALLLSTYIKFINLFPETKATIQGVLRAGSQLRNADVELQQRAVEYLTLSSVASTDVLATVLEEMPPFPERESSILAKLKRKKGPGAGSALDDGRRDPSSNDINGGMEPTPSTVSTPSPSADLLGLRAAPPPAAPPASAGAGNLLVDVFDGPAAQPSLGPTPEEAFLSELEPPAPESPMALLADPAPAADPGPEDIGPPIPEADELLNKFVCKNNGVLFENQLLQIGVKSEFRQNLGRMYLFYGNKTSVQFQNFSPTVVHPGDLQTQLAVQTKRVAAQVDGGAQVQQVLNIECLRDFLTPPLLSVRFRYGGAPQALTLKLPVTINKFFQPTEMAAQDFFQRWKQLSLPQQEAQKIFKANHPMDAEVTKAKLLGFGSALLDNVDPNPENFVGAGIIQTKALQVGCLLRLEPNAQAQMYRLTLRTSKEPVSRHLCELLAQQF
UniProt Q8N6D5: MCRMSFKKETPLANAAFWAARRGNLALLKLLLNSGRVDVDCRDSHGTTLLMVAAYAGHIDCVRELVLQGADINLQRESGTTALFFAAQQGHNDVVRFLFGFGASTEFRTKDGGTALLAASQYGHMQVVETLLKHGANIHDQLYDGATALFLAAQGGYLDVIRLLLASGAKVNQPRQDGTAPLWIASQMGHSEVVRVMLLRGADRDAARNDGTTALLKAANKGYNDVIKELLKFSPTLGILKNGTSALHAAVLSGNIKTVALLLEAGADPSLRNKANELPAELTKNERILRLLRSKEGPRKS
UniProt Q8N392: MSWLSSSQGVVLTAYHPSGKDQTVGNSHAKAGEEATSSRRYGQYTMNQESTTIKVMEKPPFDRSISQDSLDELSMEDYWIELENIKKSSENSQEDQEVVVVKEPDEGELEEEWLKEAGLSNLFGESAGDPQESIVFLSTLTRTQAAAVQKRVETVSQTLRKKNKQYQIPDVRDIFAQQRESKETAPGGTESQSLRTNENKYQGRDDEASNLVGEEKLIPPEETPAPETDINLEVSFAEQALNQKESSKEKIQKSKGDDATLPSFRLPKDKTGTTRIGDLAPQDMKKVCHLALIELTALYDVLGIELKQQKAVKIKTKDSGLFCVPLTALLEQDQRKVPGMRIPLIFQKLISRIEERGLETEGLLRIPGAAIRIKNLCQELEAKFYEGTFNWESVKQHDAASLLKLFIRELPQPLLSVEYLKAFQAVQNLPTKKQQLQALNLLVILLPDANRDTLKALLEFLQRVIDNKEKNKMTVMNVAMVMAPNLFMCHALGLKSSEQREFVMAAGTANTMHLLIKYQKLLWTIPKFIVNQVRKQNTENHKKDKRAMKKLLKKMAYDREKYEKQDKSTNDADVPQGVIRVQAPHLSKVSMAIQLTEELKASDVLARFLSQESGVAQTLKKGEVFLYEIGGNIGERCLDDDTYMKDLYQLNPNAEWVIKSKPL
UniProt Q13795: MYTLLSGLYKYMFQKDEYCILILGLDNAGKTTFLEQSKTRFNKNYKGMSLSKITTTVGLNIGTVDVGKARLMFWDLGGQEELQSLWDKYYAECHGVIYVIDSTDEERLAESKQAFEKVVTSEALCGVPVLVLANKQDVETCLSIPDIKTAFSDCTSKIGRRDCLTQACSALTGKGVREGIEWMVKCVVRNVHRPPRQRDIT
UniProt O95445: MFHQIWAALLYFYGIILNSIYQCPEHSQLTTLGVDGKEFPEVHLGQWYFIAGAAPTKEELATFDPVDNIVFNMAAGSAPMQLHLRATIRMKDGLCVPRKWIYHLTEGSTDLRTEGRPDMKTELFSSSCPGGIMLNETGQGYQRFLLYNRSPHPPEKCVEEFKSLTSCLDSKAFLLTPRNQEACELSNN

Legend:
Assay in all cases: log2 fold change, soluble protein after heating vs DMSO (PISA); higher = thermal stabilisation; K562 cells, 10 uM, 30 min; active = over 0.2 and 3.5 SD of the protein, either way, in both replicates (recomputed)
IRAK-1-4 Inhibitor I = compound: C1COCCN1CCN2C3=CC=CC=C3N=C2NC(=O)C4=CC(=CC=C4)[N+](=O)[O-] [IRAK-1-4 Inhibitor I]
Summary of the method: (§1)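 Soluble protein was quantified by TMTpro 16plex LC-MS/MS after channel sums were equalised. It was obtained as the supernatant after 21,000xg for 90 min from pooled aliquots of K562 cells (2×10^6 cells/mL, 10 μM compound, 30 min) heated for 3 min across 48°C-58°C and extracted in PBS with 0.5% NP-40 at 4°C. Thermal stability values are relative to control samples and come from duplicates. They are given as log2 fold changes.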

ibrutinib = compound: C=CC(=O)N1CCC[C@@H](n2nc(-c3ccc(Oc4ccccc4)cc3)c3c(N)ncnc32)C1 [ibrutinib]
Summary of the method: as §1

[1] = compound: CC(=O)c1cnc2ccc(-c3cc(Cl)c(O)c(Cl)c3)nc2c1N[C@H]1CC[C@H](CN(C)C)CC1
Summary of the method: as §1

ralimetinib = compound: CC(C)(C)Cn1c(N)nc2ccc(-c3[nH]c(C(C)(C)C)nc3-c3ccc(F)cc3)nc21 [ralimetinib]
Summary of the method: as §1

[2] = compound: CC(C)(O)CC(=O)NCCn1ccc2ncnc(Nc3ccc(Oc4cccc(C(F)(F)F)c4)c(Cl)c3)c21
Summary of the method: as §1

[3] = compound: CC(C)C1=C2N=C(C=C(N2N=C1)NCC3=CC=CC=C3)NCCCCCCN
Summary of the method: as §1

[4] = compound: CC(C)C[C@@H](C=O)NC(=O)[C@H](CC(C)C)NC(=O)[C@H](CC(C)C)NC(=O)OCc1ccccc1
Summary of the method: as §1

pinometostat = compound: CC(C)N(C[C@H]1O[C@@H](n2cnc3c(N)ncnc32)[C@H](O)[C@@H]1O)[C@H]1C[C@@H](CCc2nc3cc(C(C)(C)C)ccc3[nH]2)C1 [pinometostat]
Summary of the method: as §1

[5] = compound: CC1=C(C(CC(=O)N1)C2=CC=C(C=C2)C(F)(F)F)C(=O)NC3=C(C=C4C(=C3)C=NN4)F
Summary of the method: as §1

[6] = compound: CC1=C(C2=C(C=C1)C(=O)C3=CC=CC=C3N2CCCN)C
Summary of the method: as §1

Target	log2 fold change (IRAK-1-4 Inhibitor I)	log2 fold change (ibrutinib)	log2 fold change [1]	log2 fold change (ralimetinib)	log2 fold change [2]	log2 fold change [3]	log2 fold change [4]	log2 fold change (pinometostat)	log2 fold change [5]	log2 fold change [6]
ARFGAP3 (UniProt Q9NP61)	inactive: 0.013	inactive: -0.015	inactive: -0.018	inactive: 0.033	inactive: -0.025	inactive: 0.066	inactive: 0.063	inactive: 0.01	inactive: 0.006	inactive: 0.042
ANO10 (UniProt Q9NW15)	inactive: 0.023	inactive: -0.066	inactive: -0.068	inactive: -0.051	inactive: -0.046	inactive: -0.129	inactive: -0.007	inactive: -0.05	inactive: -0.059	inactive: -0.006
ARHGEF2 (UniProt Q92974)	inactive: -0.145	inactive: 0.015	inactive: 0.066	inactive: 0.219	inactive: 0.003	inactive: -0.317	inactive: 0.139	inactive: 0.581	inactive: -0.023	inactive: -0.018
APOBR (UniProt Q0VD83)	inactive: 0.053	inactive: 0.041	inactive: -0.037	inactive: -0.006	inactive: -0.021	inactive: 0.043	inactive: 0.023	inactive: 0.002	inactive: 0.045	inactive: -0.025
ANXA2 isoform 2 (UniProt P07355)	inactive: 0.021	inactive: -0.032	inactive: 0.007	inactive: 0.007	inactive: -0.012	inactive: -0.009	inactive: -0.082	inactive: -0.043	inactive: -0.045	inactive: 0.018
APOE (UniProt P02649)	inactive: -0.015	inactive: 0.175	inactive: -0.008	inactive: -0.008	inactive: 0.187	inactive: 0.059	inactive: 0.009	inactive: -0.057	inactive: -0.049	inactive: -0.08
ARF1 (UniProt P84077)	inactive: -0.014	inactive: 0.059	inactive: -0.032	inactive: -0.063	inactive: 0.125	inactive: 0.065	inactive: 0.042	inactive: -0.06	inactive: -0.056	inactive: 0.151
ANKFY1 isoform 4 (UniProt Q9P2R3)	inactive: -0.117	inactive: 0.043	inactive: 0.005	inactive: -0.044	inactive: -0.002	inactive: -0.093	inactive: 0.18	inactive: -0.13	inactive: 0.073	inactive: -0.208
APLP2 (UniProt Q06481)	inactive: -0.073	inactive: -0.005	inactive: -0.004	inactive: 0.086	inactive: 0.133	inactive: 0.167	inactive: 0.062	inactive: 0	–	inactive: -0.225
ANGPTL3 (UniProt Q9Y5C1)	inactive: -0.112	inactive: 0.146	inactive: 0.169	inactive: -0.049	inactive: 0.187	inactive: 0.112	inactive: -0.286	inactive: -0.072	–	inactive: -0.03
ARAF (UniProt P10398)	inactive: 0.011	inactive: 0.005	inactive: -0.13	inactive: 0.097	inactive: -0.064	inactive: -0.056	inactive: 0.021	inactive: 0.043	–	inactive: 0.041
AP2A2 isoform 2 (UniProt O94973)	inactive: -0.003	inactive: -0.015	inactive: 0.008	inactive: 0.006	inactive: 0.033	inactive: 0.019	inactive: 0.032	inactive: 0.025	–	inactive: 0.107
APOBEC3D (UniProt Q96AK3)	inactive: -0.072	inactive: 0.085	inactive: 0.068	inactive: 0.254	inactive: 0.088	inactive: 0.031	inactive: 0.088	inactive: 0.028	–	inactive: -0.123
APOB (UniProt P04114)	inactive: 0.042	inactive: -0.012	inactive: 0.045	inactive: -0.239	inactive: -0.295	inactive: -0.438	inactive: 0.403	inactive: -0.171	–	inactive: 0.021
AP4E1 (UniProt Q9UPM8)	inactive: 0.016	inactive: 0.085	inactive: -0.081	inactive: 0.033	inactive: 0.042	inactive: -0.055	inactive: 0.026	inactive: 0.095	inactive: -0.203	inactive: 0.128
ARF4 (UniProt P18085)	inactive: 0.072	inactive: 0.003	inactive: -0.027	inactive: -0.019	inactive: -0.103	inactive: 0.117	inactive: -0.032	inactive: -0.042	–	inactive: 0.128

Record cards, from the list above. Values in the order: log2 fold change (IRAK-1-4 Inhibitor I) | log2 fold change (ibrutinib) | log2 fold change [1] | log2 fold change (ralimetinib) | log2 fold change [2] | log2 fold change [3] | log2 fold change [4] | log2 fold change (pinometostat) | log2 fold change [5] | log2 fold change [6]
ANGPTL3 (UniProt Q9Y5C1) is entered as inactive: -0.112 | inactive: 0.146 | inactive: 0.169 | inactive: -0.049 | inactive: 0.187 | inactive: 0.112 | inactive: -0.286 | inactive: -0.072 | – | inactive: -0.03
ANXA2 isoform 2 (UniProt P07355) is entered as inactive: 0.021 | inactive: -0.032 | inactive: 0.007 | inactive: 0.007 | inactive: -0.012 | inactive: -0.009 | inactive: -0.082 | inactive: -0.043 | inactive: -0.045 | inactive: 0.018

The list goes on:

Target	log2 fold change (IRAK-1-4 Inhibitor I)	log2 fold change (ibrutinib)	log2 fold change [1]	log2 fold change (ralimetinib)	log2 fold change [2]	log2 fold change [3]	log2 fold change [4]	log2 fold change (pinometostat)	log2 fold change [5]	log2 fold change [6]
ANXA5 (UniProt P08758)	inactive: -0.013	inactive: -0.05	inactive: -0.019	inactive: -0.018	inactive: -0.006	inactive: -0.069	inactive: 0.017	inactive: -0.026	–	inactive: 0.032
AP2A1 (UniProt O95782)	inactive: -0.054	inactive: 0.01	inactive: -0.14	inactive: 0.052	inactive: 0.027	inactive: 0.023	inactive: -0.06	inactive: 0	–	inactive: 0.081
AP2B1 isoform 2 (UniProt P63010)	inactive: -0.002	inactive: 0.025	inactive: -0.034	inactive: 0	inactive: 0.008	inactive: 0.029	inactive: 0.005	inactive: 0.011	–	inactive: 0.035
AP1G1 isoform 2 (UniProt O43747)	inactive: -0.023	inactive: -0.028	inactive: 0.043	inactive: 0.115	inactive: -0.089	inactive: -0.072	inactive: -0.037	inactive: 0.057	inactive: 0.03	inactive: 0.052
ARHGAP1 (UniProt Q07960)	inactive: 0.025	inactive: -0.014	inactive: -0.049	inactive: -0.022	inactive: -0.014	inactive: 0.162	inactive: 0.023	inactive: 0	–	inactive: -0.014
API5 (UniProt Q9BZZ5)	inactive: 0.02	inactive: -0.016	inactive: -0.006	inactive: -0.014	inactive: -0.023	inactive: 0.031	inactive: 0	inactive: -0.052	inactive: -0.018	inactive: 0.045
APOBEC3G (UniProt Q9HC16)	inactive: -0.064	inactive: 0.103	inactive: -0.111	inactive: 0.128	inactive: 0.075	inactive: 0.046	inactive: 0.077	inactive: 0.11	–	active: -0.492
ANAPC2 (UniProt Q9UJX6)	inactive: 0.018	inactive: -0.045	inactive: 0.005	inactive: 0.011	inactive: -0.025	inactive: -0.083	inactive: 0.055	inactive: 0.078	–	inactive: -0.051
ANKRD29 (UniProt Q8N6D5)	inactive: -0.001	inactive: -0.18	inactive: 0.026	inactive: -0.057	inactive: -0.15	inactive: 0.007	inactive: -0.153	inactive: -0.012	–	inactive: 0.024
ARHGAP18 (UniProt Q8N392)	inactive: -0.177	inactive: -0.101	inactive: 0.003	inactive: -0.008	inactive: -0.24	inactive: -0.108	inactive: 0.061	inactive: 0.041	inactive: -0.025	inactive: 0.038
ARFRP1 (UniProt Q13795)	inactive: -0.083	inactive: 0.031	inactive: 0.02	inactive: 0.004	inactive: -0.041	inactive: -0.028	inactive: -0.073	inactive: 0.017	–	inactive: 0.075
APOM (UniProt O95445)	inactive: 0.01	inactive: 0.21	inactive: 0.033	inactive: 0.003	inactive: 0.026	inactive: 0.098	inactive: -0.017	inactive: -0.061	–	inactive: -0.169
ARID1A (UniProt O14497)	inactive: -0.109	inactive: -0.165	inactive: -0.059	inactive: 0.057	inactive: 0.015	inactive: -0.131	inactive: -0.002	inactive: -0.035	inactive: -0.025	inactive: 0.063
APPL1 (UniProt Q9UKG1)	inactive: 0.016	inactive: -0.067	inactive: -0.074	inactive: -0.024	inactive: 0.037	inactive: 0.006	inactive: 0.069	inactive: 0.059	–	inactive: -0.011
ARFIP1 (UniProt P53367)	inactive: -0.034	inactive: -0.117	inactive: -0.075	inactive: -0.104	inactive: -0.031	inactive: -0.011	inactive: -0.029	inactive: 0.006	–	inactive: 0.164
